At least one compound was matched to its structure with a doubt left.
Tested on: CL1-0 cells
Test: MTS cell viability, drug treatment of mock transfected cells
Format: cell-based, human
Conditions: control mock transfected CL1-0 cells; increasing concentrations, 72 hours
Experimental: FIGS. 10A and 10B show implication of phospho-MARCKS levels in drug resistance. (A) Effects of ectopic V5-tagged PSD-mutant or wild type MARCKS expression on CL1-0 cells in response to various drug treatments. (B) Effects of MARCKS shRNA silencing on A549 cells in response to various drug treatments. Western blot analyses were carried out to determine phospho-MARCKS and total MARCKS levels in these stable cells with appropriate antibodies. The cells were subjected to various doses of cisplatin, paclitaxel, erlotinib or dasatinib for treatment, as indicated. After 72 hours of treatment, cell viability was determinate by MTS assays. Data shown as mean±SD. *P<0.05 versus mock (A; n=3); *P<0.05 versus control shRNA (B; n=4).
To determine if the MARCKS phosphorylation step can serve as a therapeutic target, Applicants evaluated whether the status of MARCKS PSD phosphorylation could alter the sensitivity of NSCLC cells to chemotherapeutic agents and tyrosine kinase inhibitors (TKIs). The V5-tagged wild-type and PSD-mutated (S159/163A) MARCKS constructs were generated and transfected into low MARCKS-expressing CL1-0 cells (FIG. 16A) (Chen, C. H. et al. (2013) Oncogene) for establishing stable clones. These stable cell lines were exposed to increasing concentrations of cisplatin, paclitaxel, erlotinib or dasatinib for 72 hours. […]

Compound: Cc1nc(Nc2ncc(C(=O)Nc3c(C)cccc3Cl)s2)cc(N2CCN(CCO)CC2)n1 [dasatinib]
- Cell viability: dose-dependent decrease of cell viability
